Test in all cases: two-hybrid; NF-YCs as bait in pDEST32 (BD), SAPKs as prey in pDEST22 (AD); Y2H Gold strain; SD/-Trp/-Leu and SD/-Trp/-Leu/-His/-Ade medium
In test [1] the target is OsNF-YC9 (rice (Oryza sativa)).
The target in test [2] is OsNF-YC11 (rice (Oryza sativa)).
The target in test [3] is OsNF-YC10 (rice (Oryza sativa)).
Test [4] concerns the target OsNF-YC12 (rice (Oryza sativa)).
Test [5] addresses OsNF-YC8 (rice (Oryza sativa)).

No constants are given. Whether binding was seen depends on the method and setting. For part of these data: Binding can be weak; no strength is given.

B1: SAPK5 (enzyme, UniProt Q7XKA8 1-370)
chain: MEKYEPVREIGAGNFGVAKLMRNKETRELVAMKFIERGNRIDENVFREIVNHRSLRHPNIIRFKEVVVTGRHLAIVMEYAAGGELFERICEAGRFHEDEARYFFQQLVCGVSYCHAMQICHRDLKLENTLLDGSPAPRLKICDFGYSKSSLLHSRPKSTVGTPAYIAPEVLSRREYDGKLADVWSCGVTLYVMLVGAYPFEDPKDPKNFRKTISRIMSVQYKIPEYVHVSQPCRHLLSRIFVANPYKRISMGEIKSHPWFLKNLPRELKEEAQAVYYNRRGADHAASSASSAAAAAAFSPQSVEDIMRIVQEAQTVPKPDKPVSGYGWGTDDDDDDQQPAEEEDEEDDYDRTVREVHASVDLDMSNLQIS
Turning to B1, the binding result in test [1], in test [2], in test [3], in test [4] and in test [5] was “no binding” each time.

B2: SAPK6 (enzyme, UniProt Q6ZI44 1-365)
chain: MEKYELLKDIGSGNFGVARLMRNRETKELVAMKYIPRGLKIDENVAREIINHRSLRHPNIIRFKEVVLTPTHLAIVMEYAAGGELFDRICSAGRFSEDESRYFFQQLICGVSYCHFMQICHRDLKLENTLLDGSPAPRLKICDFGYSKSSLLHSKPKSTVGTPAYIAPEVLSRREYDGKMADVWSCGVTLYVMLVGAYPFEDPDDPKNFRKTIGRIVSIQYKIPEYVHISQDCRQLLSRIFVANPAKRITIREIRNHPWFMKNLPRELTEAAQAKYYKKDNSARTFSDQTVDEIMKIVQEAKTPPPSSTPVAGFGWTEEEEQEDGKNPDDDEGDRDEEEGEEGDSEDEYTKQVKQAHASCDLQKS
In the case of B2, the binding entry in test [1] is “no binding”; in test [2] it was “no binding”; in test [3] it was “binds”; in test [4], “no binding”; in test [5], “no binding”.

B3: SAPK10 (enzyme, UniProt Q75H77 1-362)
chain: MDRAALTVGPGMDMPIMHDGDRYELVRDIGSGNFGVARLMRSRADGQLVAVKYIERGDKIDENVQREIINHRSLRHPNIIRFKEVILTPTHLAIVMEYASGGELFERICNAGRFSEDEARFFFQQLISGVSYCHSMQVCHRDLKLENTLLDGSTAPRLKICDFGYSKSSVLHSQPKSTVGTPAYIAPEVLLKKEYDGKIADVWSCGVTLYVMLVGAYPFEDPDEPKNFRKTIQRILGVQYSIPDYVHISPECRDLIARIFVANPATRISIPEIRNHPWFLKNLPADLMDDSKMSSQYEEPEQPMQSMDEIMQILAEATIPAAGSGGINQFLNDGLDLDDDMEDLDSDPDLDVESSGEIVYAM
Consider B3, for which the binding entry in test [1] is listed as “no binding”; in test [2], “no binding”; in test [3] it was “binds”; in test [4] it was “no binding”; in test [5], “no binding”.

B4: SAPK8 (enzyme, UniProt Q7Y0B9 1-371)
chain: MAAAGAGAGAPDRAALTVGPGMDMPIMHDSDRYELVRDIGSGNFGVARLMRDRRTMELVAVKYIERGEKIDDNVQREIINHRSLKHPNIIRFKEVILTPTHLAIVMEYASGGELFERICKNVRFSEDEARYFFQQLISGVSYCHSMQVCHRDLKLENTLLDGSPAPRLKICDFGYSKSSVLHSQPKSTVGTPAYIAPEVLLKKEYDGKTADVWSCGVTLYVMVVGAYPFEDPEEPKNFRKTIQRILNVQYSIPENVDISPECRHLISRIFVGDPSLRITIPEIRSHGWFLKNLPADLMDDDSMSSQYEEPDQPMQTMDQIMQILTEATIPPACSRINHILTDGLDLDDDMDDLDSDSDIDVDSSGEIVYAM
Take B4: the binding entry in test [1], in test [2], in test [3], in test [4] and in test [5] was “no binding” in each case.

B5: SAPK7 (enzyme, UniProt Q7XQP4 1-359)
chain: MERYELLKDIGAGNFGVARLMRNKETKELVAMKYIPRGLKIDENVAREIINHRSLRHPNIIRFKEVVVTPTHLAIVMEYAAGGELFDRICNAGRFSEDEARYFFQQLICGVSYCHFMQICHRDLKLENTLLDGSPAPRLKICDFGYSKSSLLHSKPKSTVGTPAYIAPEVLSRREYDGKTADVWSCGVTLYVMLVGAYPFEDPDDPKNFRKTIGRIMSIQYKIPEYVHVSQDCRQLLSRIFVANPAKRITIREIRNHPWFLKNLPRELTEAAQAMYYKKDNSAPTYSVQSVEEIMKIVEEARTPPRSSTPVAGFGWQEEDEQEDNSKKPEEEQEEEEDAEDEYDKQVKQVHASGEFQLS
Turning to B5, the binding entry in test [1], in test [2], in test [3], in test [4] and in test [5] was “no binding” in each case.

B6: SAPK2 (enzyme, UniProt Q0D4J7 1-339)
chain: MERYEVIKDIGSGNFGVAKLVRDVRTKELFAVKFIERGQKIDENVQREIMNHRSLRHPNIVRFKEVVLTPTHLAIVMEYAAGGELFERICSAGRFSEDEARFFFQQLISGVSYCHSMQICHRDLKLENTLLDGSIAPRLKICDFGYSKSSLLHSQPKSTVGTPAYIAPEVLARKEYDGKVADVWSCGVTLYVMLVGAYPFEDPDEPRNFRKTITRILSVQYMVPDYVRVSMECRHLLSRIFVANPEQRITIPEIKNHPWFLKNLPIEMTDEYQMSVQMNDINTPSQGLEEIMAIIQEARKPGDGSKFSGQIPGLGSMELDDVDTDDIDVEDSGDFVCAL
Regarding B6, the binding result in test [1], in test [2], in test [3], in test [4] and in test [5] was “no binding” each time.

(Values after PMC9368926.)
